Data reported in patent US20240365773A1, “USE OF APOPTOSIS INHIBITORS FOR COLD STORAGE OF BLOOD PLATELETS” (DRK-BLUTSPENDEDIENST BADEN-WUERTTEMBERG-HESSEN GGMBH, priority 2021, published 2024).
“Also recorded” adds a separate entry of the source. At least one compound was matched to its structure with a doubt left.

Legend:
Assay type in all cases: cell-based, human
[1] = tested on: PLTs of 4° C. stored APCs; assay: PLT viability of cold stored APCs treated with apoptosis inhibitors
Description: (§1) APCs were collected from healthy volunteers according to the German guidelines for haemotherapy. Ten individuals donated two units of APCs collected with FENWAL AMICUS (Amicus, Fresenius Kabi, Bad Homburg, Germany) and stored in plasma or in PAS (SSP+, Macopharma, Langen, Germany) at 35% final plasma concentration at 4° C. and RT.
(§2) Appropriate concentration for the inhibitors was determined prior to experiments, by titrating different concentrations. Directly after the collection, the APCs were stored for an hour without agitation. APCs were split further into different culture bags under aseptic conditions and stored in sterile, oxygen permeable bag (Fresenius Kabi A G, Bad Homburg, Germany). APCs were treated with 150 μM RhoA inhibitor G04, 0.75 μM […] (PKA) activator forskolin or 40 μM Caspase-9 inhibitor z-LEHD-fmk. […] APCs without any additions were used as a negative control. After 2 hours of treatment at RT, all the samples except the control at RT, were stored at 4° C. under constant gentle agitation. All samples were activated with thrombin receptor-activating peptide TRAP ([…], HART Biologicals) prior to measurements.

[2] = tested on: PLTs from APCs; assay: Determination of apoptosis (Annexin V-FITC staining); conditions: cold stored APCs
Description: as §1, §2
PLTs from APCs were washed, resuspended with 1 mM CaCl2 and stained with Annexin V-FITC (Beckman Coulter) for 60 min at RT. Freshly isolated PLTs were incubated with 10 μM ionomycin (Abcam, Cambridge, UK) and used as positive control.

[3] = tested on: PLTs of 4° C. stored APCs; assay: Platelet activation and granule release (CD62P, CD63, PAC-1 by FC after TRAP); conditions: cold stored APCs after treatment
[4] = tested on: PLTs of 4° C. stored APCs; assay: Platelet aggregation (light transmission PLT aggregation assay); conditions: cold stored APCs, day 4
Description: as §1, §2
PLT function was analyzed by FC and light transmission PLT aggregation assay (LTA) using a 4-channel-aggregometer (Labitec, Ahrensburg, Germany). […]

[5] = tested on: cold-stored PLTs; assay: Platelet adhesion on fibrinogen coated coverslips; conditions: cold-stored PLTs after 4 and 7 days of storage, vs buffer/untreated
Description: Coverslips (Corning, New York, USA) were coated with […] of fibrinogen (Sigma Aldrich, Munich, Germany). After 4 and 7 days of storage PLTs (1×10^8 PLTs/mL) were seeded on coverslips and incubated for 1 hour at room temperature (RT) with TRAP (0.1 mM, Hart Biologicals, Hartlepool, UK). The adherent cells were fixed with 4% paraformaldehyde for 20 minutes (min) at RT. Images were captured from 5 different microscopic fields/coverslips (×100, Olympus IX73, Tokyo, Japan).

[6] = tested on: cold-stored PLTs; assay: Thrombin generation (calibrated automated thrombogram); conditions: each storage time point, vs buffer/untreated
Description: Thrombin generation was quantified performing a fluorescence based-assay using a calibrated automated thrombogram system (CAT, Stago, Maastricht, Netherlands). The fluorescence signal was acquired for 60 min with a 390-nm […] excitation/460-nm emission filter set.

[7] = tested on: cold-stored PLTs; assay: Clot formation (thromboelastometer)
Description: The clot formation was analysed using a 6-channel thromboelastometer device (Clot Pro, Enicor, Germany) and parameters were automatically calculated by dedicated software.

[8] = tested on: PLTs of 4° C. stored APCs; assay: Functional analysis of cold stored APCs (all functional parameters); conditions: treated vs untreated
Description: PLTs (10×10^6/mL) were incubated with TRAP6 (20 μM) for 30 min at 37° C., fixed with 4% PFA for 20 min at RT. The expression of CD62P (CLBThromb/6, Beckman Coulter) and CD63 (CLBGran/12, Beckman Coulter) was determined by FC. The conformational changes of glycoproteins (GPs) IIb/IIIa complex upon activation with TRAP were detected by PAC-1-antibody (BD Bioscience) using FC. PLT function was analyzed by FC and light transmission PLT aggregation assay (LTA) using a 4-channel-aggregometer (Labitec, Ahrensburg, Germany). Collagen (8 μg/ml), ristocetin ([…]) (both Molab, Langenfeld, Germany) or ADP (80 μM, Nycomed, Konstanz, Germany) were used as inductors.

C=C[C@@]1(C)CC(=O)[C@]2(O)[C@@]3(C)[C@@H](O)CCC(C)(C)[C@@H]3[C@H](O)[C@H](OC(C)=O)[C@@]2(C)O1 [forskolin]
PLT viability / survival (in words) [1]: partially restores PLT survival | apoptosis (in words) [2]: reduces apoptosis | PAC-1 expression (tendency, in words) [3]: tendency of increased PAC-1 expression after treatment with forskolin, it was not significant | PLT aggregation (in words) [4]: slightly enhanced aggregation was observed at day 4 but also in untreated APCs | PLT adhesion, number of adherent cells (in words) [5]: No significant impact; also recorded: does not impair | thrombin generation (AUC, area under the curve), in words [6]: No significant impact; also recorded: does not impair | clot formation, tendency ([7]; day 1, 4 and 7 after treatment): tendency of decreased clot formation was observed at day 1, 4 and 7 after treatment with forskolin but it was not statistically significant | clot formation (MCF, maximum clot firmness), in words ([7]; vs buffer/untreated): No significant impact; also recorded: does not impair | PLT functions / functional parameters (overall, in words) [8]: No significant impact; also recorded: does not affect deteriorated PLT functions
